Among the data in paper doi:10.1101/2021.05.05.442785 (bioRxiv, 2021) are binding values, retold here.

The assay addresses T1, S-adenosylmethionine lyase (SAMase) of bacteriophage T3, C-terminal His-tagged (bacteriophage T3) (UniProt P07693).
T1 sequence: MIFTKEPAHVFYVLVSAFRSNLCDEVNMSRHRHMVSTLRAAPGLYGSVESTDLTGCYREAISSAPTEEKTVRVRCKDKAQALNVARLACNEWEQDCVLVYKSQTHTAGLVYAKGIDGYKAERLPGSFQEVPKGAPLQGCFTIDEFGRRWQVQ
In words: pull-down.

Results are given in words; binding and its absence hold for the method and conditions named. In cells and extracts the contact can be indirect. Some entries that bind do so weakly or less than the wild type. Tags and fused reporters may be left off the sequences shown.

B1: E. coli methionine S-adenosyltransferase (MAT), endogenous (enzyme, UniProt P0A817 1-384)
chain: MAKHLFTSESVSEGHPDKIADQISDAVLDAILEQDPKARVACETYVKTGMVLVGGEITTSAWVDIEEITRNTVREIGYVHSDMGFDANSCAVLSAIGKQSPDINQGVDRADPLEQGAGDQGLMFGYATNETDVLMPAPITYAHRLVQRQAEVRKNGTLPWLRPDAKSQVTFQYDDGKIVGIDAVVLSTQHSEEIDQKSLQEAVMEEIIKPILPAEWLTSATKFFINPTGRFVIGGPMGDCGLTGRKIIVDTYGGMARHGGGAFSGKDPSKVDRSAAYAARYVAKNIVAAGLADRCEIQVSYAIGVAEPTSIMVETFGTEKVPSEQLTLLVREFFDLRPYGLIQMLDLLHPIYKETAAYGHFGREHFPWEKTDKAQLLRDAAGLK
B1: the binding result is “binds”.
